## Primary screen of a compound library

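Whole-cell assay for inhibitors of Mycobacterium tuberculosis growth, labelled Cornell in the record; the read-out is not stated. The concentration is filed as 10 mM, unlikely as a test dose, so the dose is not known. The record gives no direction; compounds strong in two other growth screens of this library score well above the rest, so higher reads as stronger inhibition. Of about 53,000 compounds tested this way, about 900 (1.7%) reached 50% or more in at least one test.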

Each number is a percent effect as filed.
The record does not define 0% and 100%; most values in the screen are far below 50% and negative numbers occur (in some assays of this library far below -100).
Compounds were drawn at random from those tested, without regard to their results.

| # | compound | Percent Effect |
|---|---|---|
| 1 | `Cc1ccc(F)c(C(=O)Nc2c(C(N)=O)n[nH]c2C)c1` | 6.08 |
| 2 | `Cc1ccc(C2CSCCN2C(=O)c2ccsc2)o1` (centres unmarked) | 26.18 |
| 3 | `Cc1ccsc1C(=O)N1CC(C(=O)NCC2CC2)C2(CCOCC2)C1` (centres unmarked) | -12.61 |
| 4 | `Cc1cc(C(C)NC(=O)c2cnc3onc(C)c3c2)c(C)o1` (centres unmarked) | 25.17 |
| 5 | `O=S1(=O)N(c2ccccc2)C[C@@H](O)[C@]12CCNC2` | 15.55 |
| 6 | `CCCN(Cc1ccccc1O)C(=O)Nc1cnn(CCOC)c1` | 26.69 |
| 7 | `COc1cccc([C@H]2CN(CCCS(=O)(=O)N(C)C)C[C@@H]2N)c1` | 42.87 |
| 8 | `Cc1ccc(CNC(=O)C2CCN(C(=O)C(C)C)CC2)n1C` | -23.17 |
| 9 | `CC(=O)Nc1nc(C(=O)NCCOc2cccc(F)c2)cs1` | 19.33 |
| 10 | `CC(C)Nc1ncnc2c1CCN(C(=O)[C@H]1CCCO1)CC2` | 9.097 |
| 11 | `CCN(Cc1cccc2c1OCO2)C(=O)C(C)c1cccnc1` (centres unmarked) | 13.96 |
| 12 | `Cc1ccsc1CNCc1c(C(C)C)nn(C)c1N1CCOCC1` | 9.149 |
| 13 | `CCc1ccc(S(=O)(=O)Nc2ccn(CC(=O)OC)n2)cc1` | 68.94 |
| 14 | `Cc1nn(C)c(C)c1CC(=O)NCc1ccnc(N2CCOCC2)c1` | 3.202 |
| 15 | `COc1cccc(OCC2CCCN(C(=O)CCc3cc(O)no3)C2)c1` (centres unmarked) | 2.916 |
| 16 | `Cc1cccn2c(=O)cc(OC(=O)c3ccccc3Cl)nc12` | 2.998 |
| 17 | `Cc1ccc(OC2CCN(C(=O)Cc3c(C)[nH]c(=O)[nH]c3=O)CC2)cc1` | -43.44 |
| 18 | `O=S(=O)(C1CC1)N1CCc2c(CN3CCOCC3)cncc2C1` | -9.264 |
| 19 | `O=C(NCCO)C1CN(c2cncnc2)CCO1` (centres unmarked) | -31.67 |
| 20 | `COc1ccc(CCN2CC(NCc3ncc[nH]3)CC2=O)cc1` (centres unmarked) | -2.479 |
| 21 | `CN(Cc1cn2ccccc2c1C#N)C1CCCN(c2cccnn2)C1` (centres unmarked) | 25.19 |
| 22 | `Cc1ccccc1CNC(C)c1ccc(OCC(=O)NC2CC2)cc1` (centres unmarked) | -6.193 |
| 23 | `CS(=O)(=O)N[C@H]1CCO[C@]2(CCN(C(=O)c3ccccn3)C2)C1.O=C(O)C(F)(F)F` | 4.539 |
| 24 | `O=C(O)C(F)(F)F.c1cc(CN2Cc3nnn(CC4CC4)c3C(COCC3CC3)C2)co1` (centres unmarked) | 15.54 |
| 25 | `Cc1nc(C)n(CC2CCCN2CC(=O)Nc2nncs2)n1` (centres unmarked) | 42.48 |
| 26 | `CN(C)C(=O)N1CC2(CCN(S(=O)(=O)C3CC3)CC2)c2ccccc21` | 13.73 |
| 27 | `O=C(C1CCCC1)N1CCC(Nc2ccncn2)CC1` | -49.82 |
| 28 | `CNS(=O)(=O)CCNCC1(O)CCCN(CCC2CCCCC2)C1=O` (centres unmarked) | 16.77 |
| 29 | `O=C(O)C(F)(F)F.[H][C@@]12CN(CC3CC3)C[C@]1([H])C(=O)N(c1ccsc1)C2` | 11.4 |
| 30 | `CC(=O)NC1(C(=O)N(C)Cc2c(C)noc2C)CCCCC1` | -24.61 |
| 31 | `CCc1ccc(C2CC(=O)Nc3cc(NS(C)(=O)=O)ccc32)o1` (centres unmarked) | 16.96 |
| 32 | `COc1ccc(CN[C@@H]2CO[C@H](CNC(=O)NC(C)C)[C@H]2O)cc1` | 0.188 |
| 33 | `Cc1ccc(N2CCC(N3C[C@@H](CN(C)C)[C@@H](CO)C3)CC2)cc1` | 19.01 |
| 34 | `O=C(COc1ccccc1O)N1CCOC(C(F)(F)F)C1` (centres unmarked) | -17.91 |
| 35 | `CC(C)CC(NC(=O)c1ccco1)c1nnc2ccccn12` (centres unmarked) | -4.137 |
| 36 | `CCN1CCN(C(=O)c2ccnc(N(C)C)c2)CC1` | 12.15 |
| 37 | `CC(C)CC(NS(C)(=O)=O)C(=O)N(C)Cc1nnc2n1CCC2` (centres unmarked) | 19.8 |
| 38 | `Cc1cc2ccccc2n1CCC(=O)NCc1ncc[nH]1` | 7.932 |
| 39 | `Cc1nc2cc(F)cc(C(=O)N3CCN(CCO)CC3)c2nc1C` | -14.47 |
| 40 | `CN(C)c1ccccc1C(=O)N1CCOC2(CNCCOC2)C1` (centres unmarked) | 20.44 |
| 41 | `[H][C@@]12C[C@H](C(=O)NCC3CC3)[C@@]([H])(CN(C(=O)NCC3CCCCC3)C1)O2` | -20.52 |
| 42 | `CNc1nc2c(s1)C(c1cccc(F)c1F)CC(=O)N2` (centres unmarked) | -9.045 |
| 43 | `COc1ccc(C(=O)N2CCC(c3nccn3C(C)C)CC2)cc1OC` | 3.239 |
| 44 | `Clc1ccccc1C1(c2ccnc(C3CC3)n2)CCNCC1` | -19.08 |
| 45 | `COc1ccc(NC(=O)CCn2nc(-c3cccs3)oc2=O)cc1OC` | -4.295 |
| 46 | `Cc1n[nH]c(C)c1CCN(C)C(=O)C(c1cccnc1)N1CCOCC1` (centres unmarked) | 18.38 |
| 47 | `CCCn1cc(C(=O)NC2CCN(CC(=O)NC3CC3)CC2)c(C)n1` | 8.894 |
| 48 | `Cc1nc(CN2CCC3(CCN(Cc4cnn(C)c4)C3)C2=O)cs1` (centres unmarked) | -74.14 |
| 49 | `COc1ccc(-c2noc(C3=NN(C)C(=O)CC3)n2)cc1OC` | 9.309 |
| 50 | `CC(C)=CCN1CCC2(CC1)CC(=O)N(Cc1cc(F)cc(F)c1)C2` | 20.01 |
| 51 | `O=C(O)C(F)(F)F.[H][C@@]12CCN(Cc3ccccc3)C[C@@]1([H])O[C@H](C(=O)NC1CC1)C2` | 15.97 |
| 52 | `Cc1cc(C)cc(OCCNC(=O)C(C)Sc2nncn2C)c1` (centres unmarked) | -16.02 |
| 53 | `CCc1ccc2nc(-c3cnn(C)c3)cc(C(=O)N3CCCC3)c2c1` | -5.966 |
| 54 | `O=C1NCCCCC1NCc1csc(-c2ccsc2)n1` (centres unmarked) | -1.014 |
| 55 | `O=C(O)C(F)(F)F.O=C(O)C(F)(F)F.[H][C@@]12CN(Cc3cccc(F)c3)C[C@]1([H])CN(Cc1ccccn1)C2` | 37.29 |
| 56 | `Cc1cc(NC(=O)N2CCN(C)CC2C)n(C(C)(C)C)n1` (centres unmarked) | -3.552 |
| 57 | `Cc1nc2cc(C3CCOCC3)nn2c(NCC2COCCO2)c1C` (centres unmarked) | -6.274 |
| 58 | `NC(=O)CCn1cc(CNCCCc2ccccc2O)c2ccccc21` | -11.79 |
| 59 | `CN(Cc1nnc2n1CCC2)S(=O)(=O)c1ccc(Br)cc1Cl` | 11.61 |
| 60 | `CCN(CC)C(=O)c1nc2c(s1)CCN(C(=O)Nc1ccccc1)CC2` | 0.5721 |
| 61 | `Cc1ccc(OC2CCN(S(=O)(=O)N(C)C)CC2)nc1` | 5.649 |
| 62 | `CC(NC(=O)Nc1nccs1)c1ccc(S(C)(=O)=O)cc1` (centres unmarked) | 10.25 |
| 63 | `CCCNC(=O)CN1CCN(Cc2csc(C(C)(C)C)n2)CC1` | -18.47 |
| 64 | `Cc1ccc2c(n1)N(Cc1cccnc1)CCN(C1CCOCC1)C2.O=C(O)C(F)(F)F.O=C(O)C(F)(F)F.O=C(O)C(F)(F)F` | -37.06 |
| 65 | `CS(=O)(=O)NCc1nnc2n1CCN(Cc1ccccn1)C2` | -24.67 |
| 66 | `OCc1ccc(N2CCN(c3ncccn3)CC2)c(F)c1` | 6.321 |
| 67 | `[H][C@@]12CS(=O)(=O)C[C@]1([H])N(Cc1cccc(OCC(N)=O)c1)CCN2CCC` | -4.329 |
| 68 | `CC(C)C(=O)Nc1cccc(C(=O)Nc2ccccn2)c1` | -1.392 |
| 69 | `CCN1CCN(C(=O)C2CC(=O)N(c3cnn(C(C)C)c3)C2)CC1` (centres unmarked) | -12.84 |
| 70 | `O=C(O)C(F)(F)F.O=C1COC2(CCN(Cc3nccs3)CC2)CN1CC1CC1` | 16.1 |
| 71 | `Cn1c(CN2CCCCC2)cc(=O)c(O)c1CN1CCCCC1` | 16.43 |
| 72 | `CC(C)c1cnc(CN(C)C2CCN(CCc3ccncc3)C2)o1` (centres unmarked) | -76.89 |
| 73 | `Oc1cc(CC2COCCN(CC3(O)CCOCC3)C2)ncn1` (centres unmarked) | -30.01 |
| 74 | `CC(C)OCCCNC(=O)CN1CCC(N2CCN(C)C2=O)CC1` | 16.97 |
| 75 | `Cc1cnc(N2CCCC(O)C2)nc1-c1ccnn1C` (centres unmarked) | -8.027 |
| 76 | `CC(=O)c1ccccc1NC(=O)CCN1CCSCC1` | 13.12 |
| 77 | `CN1CCC(Cc2nc(-c3ccnn3C)n(Cc3ccccc3)n2)CC1` | -64.65 |

9 of the entries, repeated:

| compound | Percent Effect |
|---|---|
| `CC(NC(=O)Nc1nccs1)c1ccc(S(C)(=O)=O)cc1` (centres unmarked) | 10.25 |
| `Clc1ccccc1C1(c2ccnc(C3CC3)n2)CCNCC1` | -19.08 |
| `CC(C)CC(NC(=O)c1ccco1)c1nnc2ccccn12` (centres unmarked) | -4.137 |
| `O=S(=O)(C1CC1)N1CCc2c(CN3CCOCC3)cncc2C1` | -9.264 |
| `COc1ccc(CCN2CC(NCc3ncc[nH]3)CC2=O)cc1` (centres unmarked) | -2.479 |
| `CS(=O)(=O)N[C@H]1CCO[C@]2(CCN(C(=O)c3ccccn3)C2)C1.O=C(O)C(F)(F)F` | 4.539 |
| `CCN(Cc1cccc2c1OCO2)C(=O)C(C)c1cccnc1` (centres unmarked) | 13.96 |
| `CC(C)OCCCNC(=O)CN1CCC(N2CCN(C)C2=O)CC1` | 16.97 |
| `COc1cccc([C@H]2CN(CCCS(=O)(=O)N(C)C)C[C@@H]2N)c1` | 42.87 |

From ChEMBL document CHEMBL3988442, “University of Dundee, Small-Polar-MMV Screening Library” (2021).